These are yes or no findings as the source states them, for the method shown. For some assays here: In cells and extracts the contact can be indirect. Some binding calls cover weakened binding; strength is not graded here. For some assays here: Tags and fused reporters may be left off the sequences shown.
T1: RibE (Bacillus subtilis) (UniProt P16440)
T1 sequence: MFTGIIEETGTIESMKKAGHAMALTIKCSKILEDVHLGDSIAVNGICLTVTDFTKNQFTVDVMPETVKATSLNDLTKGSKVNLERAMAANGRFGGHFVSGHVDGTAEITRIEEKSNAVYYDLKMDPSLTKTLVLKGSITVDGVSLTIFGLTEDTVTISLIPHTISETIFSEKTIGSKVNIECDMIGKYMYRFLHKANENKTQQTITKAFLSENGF

T2: RibH (Bacillus subtilis) (UniProt P11998)
T2 sequence: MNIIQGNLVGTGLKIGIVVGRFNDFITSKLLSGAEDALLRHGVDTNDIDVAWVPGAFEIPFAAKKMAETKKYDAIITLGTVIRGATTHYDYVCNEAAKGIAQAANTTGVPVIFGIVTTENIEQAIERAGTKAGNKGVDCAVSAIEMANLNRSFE

T3: Strep-RibH (Bacillus subtilis) (UniProt P11998)
T3 sequence: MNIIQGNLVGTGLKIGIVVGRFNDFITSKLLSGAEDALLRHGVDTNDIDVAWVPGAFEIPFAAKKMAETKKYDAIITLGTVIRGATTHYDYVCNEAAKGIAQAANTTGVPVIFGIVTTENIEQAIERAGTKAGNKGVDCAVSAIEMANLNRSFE

T4: Strep-RibH^K29E (Bacillus subtilis) (UniProt P11998)
T4 sequence: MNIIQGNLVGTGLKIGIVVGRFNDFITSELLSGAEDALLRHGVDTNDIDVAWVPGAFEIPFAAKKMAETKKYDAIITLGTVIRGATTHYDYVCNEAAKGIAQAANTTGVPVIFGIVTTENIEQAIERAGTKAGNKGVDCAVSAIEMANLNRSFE

T5: Strep-RibH^K29R (Bacillus subtilis) (UniProt P11998)
T5 sequence: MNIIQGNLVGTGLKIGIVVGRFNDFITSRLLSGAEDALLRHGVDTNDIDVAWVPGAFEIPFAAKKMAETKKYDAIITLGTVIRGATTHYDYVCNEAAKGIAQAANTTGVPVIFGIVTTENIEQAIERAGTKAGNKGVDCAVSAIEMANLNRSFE


What was measured:
RibE (Bacillus subtilis) = molecular target: T1, RibE (Bacillus subtilis); assay: two-hybrid; bacterial adenylate cyclase two-hybrid (BACTH) in E. coli BTH101; T18 and T25 fragments fused to the N- or C-terminus, all combinations; lacZ read qualitatively by X-Gal overlay on colonies
RibH (Bacillus subtilis) = molecular target: T2, RibH (Bacillus subtilis); assay: as above
[1] = molecular target: T3, Strep-RibH (Bacillus subtilis); assay: pull-down + SEC; coproduced in E. coli BL21 Star, purified by Strep-Tactin affinity chromatography followed by SEC; pooled 60-mer peak (~1 MDa) analysed by SDS-PAGE
[2] = molecular target: T4, Strep-RibH^K29E (Bacillus subtilis); assay: as above
[3] = molecular target: T5, Strep-RibH^K29R (Bacillus subtilis); assay: as above
RibT (Bacillus subtilis) = RibT (Bacillus subtilis) (UniProt P17622); assay: two-hybrid; bacterial adenylate cyclase two-hybrid (BACTH) in E. coli BTH101; T18 and T25 fragments fused to the N- or C-terminus, all combinations; lacZ read qualitatively by X-Gal overlay on colonies

Binder | binding (RibE (Bacillus subtilis)) | binding (RibH (Bacillus subtilis)) | binding [1] | binding [2] | binding [3] | binding (RibT (Bacillus subtilis))
RibH (enzyme, UniProt P11998 1-154) MNIIQGNLVGTGLKIGIVVGRFNDFITSKLLSGAEDALLRHGVDTNDIDVAWVPGAFEIPFAAKKMAETKKYDAIITLGTVIRGATTHYDYVCNEAAKGIAQAANTTGVPVIFGIVTTENIEQAIERAGTKAGNKGVDCAVSAIEMANLNRSFE | binds | binds |  |  |  | 
His6-RibE (enzyme, UniProt P16440 1-215) MFTGIIEETGTIESMKKAGHAMALTIKCSKILEDVHLGDSIAVNGICLTVTDFTKNQFTVDVMPETVKATSLNDLTKGSKVNLERAMAANGRFGGHFVSGHVDGTAEITRIEEKSNAVYYDLKMDPSLTKTLVLKGSITVDGVSLTIFGLTEDTVTISLIPHTISETIFSEKTIGSKVNIECDMIGKYMYRFLHKANENKTQQTITKAFLSENGF |  |  | binds | binds | binds | 
RibT (enzyme, UniProt P17622 1-124) MLIRYKKSFEKIAMGLLSFMPNEKDLKQLQQTIKDYETDTDRQLFLWKEDEDIVGAIGVEKKDSEVEIRHISVNPSHRHQGIGKQMMDALKHLFKTQVLVPNELTQSFFERCQGQQDQDISYNN | binds | binds |  |  |  | binds

— PMC9048828
